# The supplement of paper PMC12595434, “Development of retinoid nuclear receptor pathway antagonists through targeting aldehyde dehydrogenase 1A3” (iScience, 2025)
# By UniProt entry, the sequences of proteins in these tests, tags left out. Where a name states a change or a piece, a line headed by the entry shows the natural chain unless it says otherwise.
# UniProt Q14019: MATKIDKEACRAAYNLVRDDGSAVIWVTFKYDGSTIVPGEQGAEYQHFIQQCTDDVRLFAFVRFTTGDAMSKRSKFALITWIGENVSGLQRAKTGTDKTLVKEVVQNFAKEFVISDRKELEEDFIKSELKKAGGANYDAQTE
# UniProt Q14126: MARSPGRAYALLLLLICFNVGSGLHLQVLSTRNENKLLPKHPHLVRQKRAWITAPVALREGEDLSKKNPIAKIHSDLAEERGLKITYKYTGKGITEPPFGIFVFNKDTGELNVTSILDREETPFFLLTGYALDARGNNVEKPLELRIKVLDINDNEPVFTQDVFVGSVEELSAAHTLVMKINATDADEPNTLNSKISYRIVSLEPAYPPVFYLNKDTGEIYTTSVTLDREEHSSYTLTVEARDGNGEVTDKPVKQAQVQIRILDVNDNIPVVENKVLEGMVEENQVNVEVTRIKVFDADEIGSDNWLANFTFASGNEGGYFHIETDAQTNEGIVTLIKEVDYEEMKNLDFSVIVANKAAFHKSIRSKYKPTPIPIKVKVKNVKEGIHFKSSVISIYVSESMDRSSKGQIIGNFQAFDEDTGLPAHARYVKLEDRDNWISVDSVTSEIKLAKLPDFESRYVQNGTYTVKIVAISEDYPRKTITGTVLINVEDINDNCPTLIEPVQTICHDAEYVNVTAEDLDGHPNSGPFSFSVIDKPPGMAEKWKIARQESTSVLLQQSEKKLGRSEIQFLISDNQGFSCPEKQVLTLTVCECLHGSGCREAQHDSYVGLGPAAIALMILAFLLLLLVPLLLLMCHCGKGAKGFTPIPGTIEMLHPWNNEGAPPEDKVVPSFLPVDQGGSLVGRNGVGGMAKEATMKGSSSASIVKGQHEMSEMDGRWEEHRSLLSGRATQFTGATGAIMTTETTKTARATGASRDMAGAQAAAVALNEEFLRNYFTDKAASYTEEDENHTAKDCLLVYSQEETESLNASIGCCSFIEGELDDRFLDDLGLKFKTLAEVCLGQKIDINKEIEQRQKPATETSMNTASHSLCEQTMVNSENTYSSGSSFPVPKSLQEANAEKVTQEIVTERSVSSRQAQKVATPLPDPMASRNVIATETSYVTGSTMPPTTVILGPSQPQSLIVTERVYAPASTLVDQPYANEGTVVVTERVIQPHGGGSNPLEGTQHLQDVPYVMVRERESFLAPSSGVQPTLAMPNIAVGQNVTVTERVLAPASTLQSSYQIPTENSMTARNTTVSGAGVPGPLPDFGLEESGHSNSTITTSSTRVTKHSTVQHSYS
# UniProt Q13217: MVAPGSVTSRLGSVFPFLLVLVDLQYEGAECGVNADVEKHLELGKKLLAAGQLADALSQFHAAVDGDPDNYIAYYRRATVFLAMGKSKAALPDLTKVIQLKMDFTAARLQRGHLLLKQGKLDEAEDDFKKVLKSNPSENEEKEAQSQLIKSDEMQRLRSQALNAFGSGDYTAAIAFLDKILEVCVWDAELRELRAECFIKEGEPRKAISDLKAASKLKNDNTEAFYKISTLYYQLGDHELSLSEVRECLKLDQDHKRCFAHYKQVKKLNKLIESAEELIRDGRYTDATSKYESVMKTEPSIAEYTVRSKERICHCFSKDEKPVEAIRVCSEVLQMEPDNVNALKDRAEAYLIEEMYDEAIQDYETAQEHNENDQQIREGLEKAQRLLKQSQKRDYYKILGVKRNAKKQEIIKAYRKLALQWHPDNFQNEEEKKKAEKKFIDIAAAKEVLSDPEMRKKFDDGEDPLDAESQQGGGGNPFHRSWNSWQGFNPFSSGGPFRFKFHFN
# UniProt Q15036: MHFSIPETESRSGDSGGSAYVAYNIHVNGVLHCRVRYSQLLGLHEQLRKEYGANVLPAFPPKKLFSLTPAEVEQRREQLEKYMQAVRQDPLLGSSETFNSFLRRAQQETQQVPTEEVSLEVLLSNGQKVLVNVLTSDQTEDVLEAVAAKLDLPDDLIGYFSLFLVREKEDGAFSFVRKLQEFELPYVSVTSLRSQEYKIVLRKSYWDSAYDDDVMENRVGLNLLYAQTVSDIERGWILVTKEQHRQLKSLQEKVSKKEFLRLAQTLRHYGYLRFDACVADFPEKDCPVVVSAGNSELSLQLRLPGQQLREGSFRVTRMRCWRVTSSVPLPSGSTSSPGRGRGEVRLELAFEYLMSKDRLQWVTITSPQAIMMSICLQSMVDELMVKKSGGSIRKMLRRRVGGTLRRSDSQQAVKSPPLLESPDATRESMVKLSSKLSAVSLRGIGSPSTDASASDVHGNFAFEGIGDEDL
# UniProt Q14651: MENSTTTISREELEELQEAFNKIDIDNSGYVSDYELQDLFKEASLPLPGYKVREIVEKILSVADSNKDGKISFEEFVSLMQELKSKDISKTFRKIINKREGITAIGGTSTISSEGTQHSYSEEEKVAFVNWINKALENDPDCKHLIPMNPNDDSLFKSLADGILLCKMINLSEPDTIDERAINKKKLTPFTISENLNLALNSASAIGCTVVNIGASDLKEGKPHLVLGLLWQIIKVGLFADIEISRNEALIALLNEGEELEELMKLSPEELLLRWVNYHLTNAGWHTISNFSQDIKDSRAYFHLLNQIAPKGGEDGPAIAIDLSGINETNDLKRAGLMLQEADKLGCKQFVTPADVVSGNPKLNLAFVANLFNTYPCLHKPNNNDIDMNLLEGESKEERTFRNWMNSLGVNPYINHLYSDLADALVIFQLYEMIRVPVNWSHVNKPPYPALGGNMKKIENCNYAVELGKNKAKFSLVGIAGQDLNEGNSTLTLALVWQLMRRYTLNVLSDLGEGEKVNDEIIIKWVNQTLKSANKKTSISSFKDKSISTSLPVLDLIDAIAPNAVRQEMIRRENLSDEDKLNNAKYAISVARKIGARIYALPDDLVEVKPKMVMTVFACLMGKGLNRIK
# UniProt Q14764, whole entry: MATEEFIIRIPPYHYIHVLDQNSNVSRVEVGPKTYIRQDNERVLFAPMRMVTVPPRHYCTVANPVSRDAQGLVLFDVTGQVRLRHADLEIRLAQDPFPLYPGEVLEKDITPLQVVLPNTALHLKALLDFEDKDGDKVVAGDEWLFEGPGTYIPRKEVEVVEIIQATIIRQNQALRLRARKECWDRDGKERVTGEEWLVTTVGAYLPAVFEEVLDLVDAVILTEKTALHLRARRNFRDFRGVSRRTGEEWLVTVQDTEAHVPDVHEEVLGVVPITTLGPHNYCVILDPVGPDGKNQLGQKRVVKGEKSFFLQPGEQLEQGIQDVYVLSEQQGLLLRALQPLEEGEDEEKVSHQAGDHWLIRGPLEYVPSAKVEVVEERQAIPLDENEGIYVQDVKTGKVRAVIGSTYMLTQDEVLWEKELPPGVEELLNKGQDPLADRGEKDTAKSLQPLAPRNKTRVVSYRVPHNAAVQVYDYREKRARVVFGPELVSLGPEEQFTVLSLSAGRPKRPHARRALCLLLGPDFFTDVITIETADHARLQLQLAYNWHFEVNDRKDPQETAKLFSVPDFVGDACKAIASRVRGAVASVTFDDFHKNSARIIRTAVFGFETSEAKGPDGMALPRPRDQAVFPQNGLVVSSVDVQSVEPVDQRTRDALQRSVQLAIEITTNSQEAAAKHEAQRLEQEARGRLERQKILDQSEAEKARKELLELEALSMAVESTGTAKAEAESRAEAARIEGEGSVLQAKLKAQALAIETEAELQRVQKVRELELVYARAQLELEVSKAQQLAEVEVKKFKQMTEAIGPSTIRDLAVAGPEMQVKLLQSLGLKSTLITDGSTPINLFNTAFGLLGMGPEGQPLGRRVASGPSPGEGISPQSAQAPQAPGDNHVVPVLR
# UniProt Q13247: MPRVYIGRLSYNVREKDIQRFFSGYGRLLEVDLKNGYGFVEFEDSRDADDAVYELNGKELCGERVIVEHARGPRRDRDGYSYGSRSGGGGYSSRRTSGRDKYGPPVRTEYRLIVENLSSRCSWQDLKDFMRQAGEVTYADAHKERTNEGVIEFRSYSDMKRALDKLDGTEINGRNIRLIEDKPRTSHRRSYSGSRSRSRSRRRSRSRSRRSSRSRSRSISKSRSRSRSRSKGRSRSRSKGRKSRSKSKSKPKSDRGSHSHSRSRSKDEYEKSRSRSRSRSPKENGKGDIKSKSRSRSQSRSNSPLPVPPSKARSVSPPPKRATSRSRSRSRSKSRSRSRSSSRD
# UniProt Q14161: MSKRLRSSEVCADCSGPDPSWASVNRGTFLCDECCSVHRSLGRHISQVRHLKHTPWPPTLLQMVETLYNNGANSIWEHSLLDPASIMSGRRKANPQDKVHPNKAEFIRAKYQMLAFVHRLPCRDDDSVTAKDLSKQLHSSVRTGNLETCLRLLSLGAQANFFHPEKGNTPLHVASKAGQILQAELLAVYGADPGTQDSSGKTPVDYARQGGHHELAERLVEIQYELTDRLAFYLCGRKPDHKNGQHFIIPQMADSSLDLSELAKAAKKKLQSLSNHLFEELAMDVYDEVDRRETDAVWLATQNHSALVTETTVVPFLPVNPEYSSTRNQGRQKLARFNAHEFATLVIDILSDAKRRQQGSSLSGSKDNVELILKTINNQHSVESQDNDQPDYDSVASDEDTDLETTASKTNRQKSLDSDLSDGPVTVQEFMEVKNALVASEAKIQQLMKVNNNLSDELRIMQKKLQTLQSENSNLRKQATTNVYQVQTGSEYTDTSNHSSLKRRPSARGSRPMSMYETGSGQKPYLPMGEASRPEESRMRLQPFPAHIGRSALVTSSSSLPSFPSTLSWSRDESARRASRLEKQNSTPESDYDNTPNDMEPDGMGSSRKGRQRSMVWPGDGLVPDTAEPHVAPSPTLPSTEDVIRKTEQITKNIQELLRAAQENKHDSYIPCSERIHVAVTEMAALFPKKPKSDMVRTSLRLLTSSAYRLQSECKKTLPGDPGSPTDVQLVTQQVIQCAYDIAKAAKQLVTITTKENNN
# UniProt Q13574: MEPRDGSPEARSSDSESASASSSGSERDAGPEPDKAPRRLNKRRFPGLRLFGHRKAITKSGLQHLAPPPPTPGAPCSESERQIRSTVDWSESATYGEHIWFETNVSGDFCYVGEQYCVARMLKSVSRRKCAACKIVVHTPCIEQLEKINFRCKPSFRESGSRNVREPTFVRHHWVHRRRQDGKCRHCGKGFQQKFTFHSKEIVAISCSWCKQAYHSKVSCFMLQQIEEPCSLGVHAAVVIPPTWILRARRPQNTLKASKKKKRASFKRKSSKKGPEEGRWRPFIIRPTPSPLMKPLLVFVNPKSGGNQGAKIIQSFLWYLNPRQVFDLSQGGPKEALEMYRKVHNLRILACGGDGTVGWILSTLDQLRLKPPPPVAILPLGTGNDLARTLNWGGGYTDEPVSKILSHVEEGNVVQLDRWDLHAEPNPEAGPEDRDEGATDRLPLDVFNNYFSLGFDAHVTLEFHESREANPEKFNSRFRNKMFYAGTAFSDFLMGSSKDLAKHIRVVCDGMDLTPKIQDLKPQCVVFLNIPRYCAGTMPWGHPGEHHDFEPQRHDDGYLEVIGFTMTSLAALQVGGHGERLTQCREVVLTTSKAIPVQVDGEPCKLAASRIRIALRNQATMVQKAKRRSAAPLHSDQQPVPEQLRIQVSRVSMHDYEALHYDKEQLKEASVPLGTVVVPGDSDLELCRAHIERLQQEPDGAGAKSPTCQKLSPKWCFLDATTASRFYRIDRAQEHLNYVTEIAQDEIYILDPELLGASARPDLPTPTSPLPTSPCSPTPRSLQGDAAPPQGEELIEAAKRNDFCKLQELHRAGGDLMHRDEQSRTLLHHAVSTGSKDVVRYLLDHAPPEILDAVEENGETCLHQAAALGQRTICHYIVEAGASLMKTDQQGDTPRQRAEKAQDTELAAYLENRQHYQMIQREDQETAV
# UniProt Q13185: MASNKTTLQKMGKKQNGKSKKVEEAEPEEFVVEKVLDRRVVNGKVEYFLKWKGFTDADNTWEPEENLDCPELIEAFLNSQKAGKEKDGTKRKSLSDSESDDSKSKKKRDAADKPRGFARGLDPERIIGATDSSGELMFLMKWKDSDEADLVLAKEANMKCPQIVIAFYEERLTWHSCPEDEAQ
# UniProt Q14145, whole entry: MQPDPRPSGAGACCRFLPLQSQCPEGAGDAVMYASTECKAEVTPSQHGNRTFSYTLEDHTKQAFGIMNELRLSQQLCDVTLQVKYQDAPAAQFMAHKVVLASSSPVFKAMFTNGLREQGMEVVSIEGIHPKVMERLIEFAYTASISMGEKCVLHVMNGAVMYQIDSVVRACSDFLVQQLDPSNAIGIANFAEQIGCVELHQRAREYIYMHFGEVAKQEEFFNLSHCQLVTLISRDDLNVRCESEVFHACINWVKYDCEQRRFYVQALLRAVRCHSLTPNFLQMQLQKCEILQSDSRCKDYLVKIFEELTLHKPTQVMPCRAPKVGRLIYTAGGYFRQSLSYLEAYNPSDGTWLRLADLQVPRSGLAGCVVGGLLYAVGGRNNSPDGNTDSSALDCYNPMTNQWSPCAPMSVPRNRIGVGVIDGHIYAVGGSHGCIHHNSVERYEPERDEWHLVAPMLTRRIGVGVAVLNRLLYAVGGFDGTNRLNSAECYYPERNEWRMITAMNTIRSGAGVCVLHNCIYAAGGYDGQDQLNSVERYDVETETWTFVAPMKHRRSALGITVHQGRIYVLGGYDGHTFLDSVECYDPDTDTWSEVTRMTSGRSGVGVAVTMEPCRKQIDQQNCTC
# This is one part of the list. This is a noisy data set.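 Many melting curves are irregular; where none melted, Tm was taken as 64 °C.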
# Compound: CCc1cnccc1C(=O)Nc1cc2c(cc1F)NC(=O)CC2
# Experiment: melting temperature shift (DMSO Tm minus MBE1-treated Tm) in cellular thermal proteome profiling; higher = less thermal stabilization by MBE1 (negative = stabilized by MBE1)
# Details: A375
Target,melting temperature shift (MBE1 concentration: 100 nM) [°C],melting temperature shift (MBE1 concentration: 1 uM) [°C]
TCOF1 (UniProt Q13428),-2.11,-2.37
KIF22 (UniProt Q14807),-0.34,-0.269
LRP8 (UniProt Q14114),-1.78,-2.42
UniProt Q14667,-0.366,0.318
SQSTM1 (UniProt Q13501),0.867,0.458
UniProt Q14699,-0.168,0.0939
DIP2A (UniProt Q14689),-1.15,0.44
COASY (UniProt Q13057),-0.0141,-0.315
CALCOCO2 (UniProt Q13137),-0.475,0.501
PSMD2 (UniProt Q13200),-0.627,0.369
BMS1 (UniProt Q14692),0.214,0.721
WTAP (UniProt Q15007),-0.574,-0.546
COTL1 (UniProt Q14019),0.107,0.483
UniProt Q15052,-0.997,-0.583
MYO9B (UniProt Q13459),0.231,-0.00941
TTLL12 (UniProt Q14166),-0.404,-0.384
DSG2 (UniProt Q14126),-1.03,0.175
NAA25 (UniProt Q14CX7),-0.262,0.318
DNAJC3 (UniProt Q13217),-0.872,-0.349
SNX17 (UniProt Q15036),-1.25,-0.696

# Single records, as listed above. Values in the order: melting temperature shift (MBE1 concentration: 100 nM) [°C] | melting temperature shift (MBE1 concentration: 1 uM) [°C]
# COTL1 (UniProt Q14019) is listed as 0.107 | 0.483
# UniProt Q15052 is listed as -0.997 | -0.583
# SQSTM1 (UniProt Q13501) is listed as 0.867 | 0.458

# Next part:

Target,melting temperature shift (MBE1 concentration: 100 nM) [°C],melting temperature shift (MBE1 concentration: 1 uM) [°C]
UniProt Q13207,-0.426,-0.367
PLS1 (UniProt Q14651),-0.0366,0.403
MVP (UniProt Q14764),-0.657,0.208
CUL1 (UniProt Q13616),-1.19,-1.27
PPFIA1 (UniProt Q13136),-0.254,0.108
CUL4B (UniProt Q13620),-0.765,0.429
ZNF638 (UniProt Q14966),-1.31,-1.16
PAK2 (UniProt Q13177),-1,-0.168
SMAD4 (UniProt Q13485),-0.472,0.104
DCTN2 (UniProt Q13561),1.17,0.556
SRSF6 (UniProt Q13247),-0.513,0.208
IQGAP2 (UniProt Q13576),1.54,0.299
GIT2 (UniProt Q14161),-0.472,0.24
UniProt Q13308,-0.952,0.735
NFYC (UniProt Q13952),-0.396,-0.782
ADAM15 (UniProt Q13444),-1.16,1.43
PPIL2 (UniProt Q13356),-0.902,-0.432
MRPL49 (UniProt Q13405),0.568,1.17
IRF3 (UniProt Q14653),-0.655,-0.208
GNA13 (UniProt Q14344),-0.999,0.0268

Target,melting temperature shift (MBE1 concentration: 100 nM) [°C],melting temperature shift (MBE1 concentration: 1 uM) [°C]
LBR (UniProt Q14739),-0.268,0.429
GNL2 (UniProt Q13823),-0.698,-0.218
ATM (UniProt Q13315),-0.465,0.409
NUMA1 (UniProt Q14980),-1.52,-1.11
STX3 (UniProt Q13277),-0.995,-0.629
NAE1 (UniProt Q13564),0.678,0.519
GPS1 (UniProt Q13098),-1.04,0.513
UniProt Q14849,-0.889,0.586
UniProt Q13574,0.598,-1.22
CBX3 (UniProt Q13185),0.25,-0.244
SETDB1 (UniProt Q15047),-0.334,-0.433
KEAP1 (UniProt Q14145),1.15,-0.11
SUZ12 (UniProt Q15022),0.154,0.416
GTF2H3 (UniProt Q13889),-1.66,-0.102
UniProt Q14119,-1.97,0.153
UniProt Q14123,-1.33,0.588
RBM39 (UniProt Q14498),-0.837,-0.917
CASP8 (UniProt Q14790),-0.593,-0.819
UniProt Q13099,-1.67,-0.677
THOC5 (UniProt Q13769),0.488,0.305
